Measurements taken from PMC7141810, “UBP12 and UBP13 negatively regulate the activity of the ubiquitin-dependent peptidases DA1, DAR1 and DAR2” (eLife, 2020).
Results are given in words; binding and its absence hold for the method and conditions named. In cells and extracts the contact can be indirect. Some binding calls cover weakened binding; strength is not graded here. Sequences can lack the tags named with a protein.

B1: HIS-MBP-DA1 (natural protein, Arabidopsis thaliana, UniProt P0C7Q8 1-532, looked up)
chain: MGWFNKIFKGSNQRLRVGNNKHNHNVYYDNYPTASHDDEPSAADTDADNDEPHHTQEPSTSEDNTSNDQENEDIDRAIALSLLEENQEQTSISGKYSMPVDEDEQLARALQESMVVGNSPRHKSGSTYDNGNAYGAGDLYGNGHMYGGGNVYANGDIYYPRPITFQMDFRICAGCNMEIGHGRFLNCLNSLWHPECFRCYGCSQPISEYEFSTSGNYPFHKACYRERYHPKCDVCSHFIPTNHAGLIEYRAHPFWVQKYCPSHEHDATPRCCSCERMEPRNTRYVELNDGRKLCLECLDSAVMDTMQCQPLYLQIQNFYEGLNMKVEQEVPLLLVERQALNEAREGEKNGHYHMPETRGLCLSEEQTVSTVRKRSKHGTGKWAGNITEPYKLTRQCEVTAILILFGLPRLLTGSILAHEMMHAWMRLKGFRTLSQDVEEGICQVMAHKWLDAELAAGSTNSNAASSSSSSQGLKKGPRSQYERKLGEFFKHQIESDASPVYGDGFRAGRLAVHKYGLRKTLEHIQMTGRFPV
notes: DA1, Arabidopsis thaliana, AT1G19270; source: E. coli BL21 (DE3), purified (NI-NTA agarose beads)
B2: HIS-MBP-DAR2 (natural protein, Arabidopsis thaliana, UniProt Q0WSN2 1-528, looked up)
chain: MDSSSSSSSSSPSSSYGVARVSHISNPCIFGEVGSSSSSTYRDKKWKLMKWVSKLFKSGSNGGGSGAHTNHHPPQFQEDENMVFPLPPSSLDDRSRGARDKEELDRSISLSLADNTKRPHGYGWSMDNNRDFPRPFHGGLNPSSFIPPYEPSYQYRRRQRICGGCNSDIGSGNYLGCMGTFFHPECFRCHSCGYAITEHEFSLSGTKPYHKLCFKELTHPKCEVCHHFIPTNDAGLIEYRCHPFWNQKYCPSHEYDKTARCCSCERLESWDVRYYTLEDGRSLCLECMETAITDTGECQPLYHAIRDYYEGMYMKLDQQIPMLLVQREALNDAIVGEKNGYHHMPETRGLCLSEEQTVTSVLRRPRLGAHRLVGMRTQPQRLTRKCEVTAILVLYGLPRLLTGAILAHELMHGWLRLNGFRNLNPEVEEGICQVLSYMWLESEVLSDPSTRNLPSTSSVATSSSSSFSNKKGGKSNVEKKLGEFFKHQIAHDASPAYGGGFRAANAAACKYGLRRTLDHIRLTGTFPL
notes: DAR2, Arabidopsis thaliana, AT2G39830; source: E. coli BL21 (DE3), purified (NI-NTA agarose beads)

Target: T1, GFP-UBP12 (Arabidopsis thaliana) (UniProt Q9FPT1)
T1 sequence: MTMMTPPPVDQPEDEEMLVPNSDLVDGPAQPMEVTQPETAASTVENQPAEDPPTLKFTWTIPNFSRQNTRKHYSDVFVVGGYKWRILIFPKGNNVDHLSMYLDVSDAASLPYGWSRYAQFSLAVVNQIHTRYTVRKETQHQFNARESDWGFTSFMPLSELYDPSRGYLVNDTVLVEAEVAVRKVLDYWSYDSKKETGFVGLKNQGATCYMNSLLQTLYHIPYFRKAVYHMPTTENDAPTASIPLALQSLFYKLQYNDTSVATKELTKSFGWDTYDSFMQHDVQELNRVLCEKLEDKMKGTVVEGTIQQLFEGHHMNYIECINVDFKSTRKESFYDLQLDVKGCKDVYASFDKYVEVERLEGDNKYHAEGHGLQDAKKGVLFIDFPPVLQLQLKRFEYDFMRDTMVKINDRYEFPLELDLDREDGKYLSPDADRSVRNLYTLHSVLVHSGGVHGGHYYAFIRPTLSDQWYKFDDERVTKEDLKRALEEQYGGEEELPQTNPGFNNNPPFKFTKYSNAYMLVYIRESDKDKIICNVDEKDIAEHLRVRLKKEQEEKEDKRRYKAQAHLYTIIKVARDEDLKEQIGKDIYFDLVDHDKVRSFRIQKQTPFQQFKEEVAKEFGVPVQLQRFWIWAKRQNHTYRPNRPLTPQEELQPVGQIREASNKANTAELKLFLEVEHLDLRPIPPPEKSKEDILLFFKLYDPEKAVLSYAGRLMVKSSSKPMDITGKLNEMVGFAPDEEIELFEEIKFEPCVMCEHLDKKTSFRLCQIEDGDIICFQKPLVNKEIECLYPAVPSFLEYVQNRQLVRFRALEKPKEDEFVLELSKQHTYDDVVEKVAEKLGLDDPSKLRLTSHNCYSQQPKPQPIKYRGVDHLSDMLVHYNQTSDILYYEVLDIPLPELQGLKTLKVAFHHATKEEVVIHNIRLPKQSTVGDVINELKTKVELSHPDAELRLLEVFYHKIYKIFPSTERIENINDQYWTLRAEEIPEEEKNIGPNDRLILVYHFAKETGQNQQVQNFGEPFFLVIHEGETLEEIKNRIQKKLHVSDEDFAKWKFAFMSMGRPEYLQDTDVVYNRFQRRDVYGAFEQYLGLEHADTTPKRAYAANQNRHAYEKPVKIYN
Assay: co-IP; in vivo pull-down; RFP-tagged protein co-expressed with GFP-UBP12 or free GFP from the same Golden Gate vector in Arabidopsis cell suspension cultures; purified with anti-GFP beads; Western blot with anti-GFP and anti-RFP

Binder | binding
B1 | binds
B2 | binds
